From PMC13572447 come the findings set out here.

By UniProt entry, the sequences of proteins in these tests, tags left out.
UniProt P45974: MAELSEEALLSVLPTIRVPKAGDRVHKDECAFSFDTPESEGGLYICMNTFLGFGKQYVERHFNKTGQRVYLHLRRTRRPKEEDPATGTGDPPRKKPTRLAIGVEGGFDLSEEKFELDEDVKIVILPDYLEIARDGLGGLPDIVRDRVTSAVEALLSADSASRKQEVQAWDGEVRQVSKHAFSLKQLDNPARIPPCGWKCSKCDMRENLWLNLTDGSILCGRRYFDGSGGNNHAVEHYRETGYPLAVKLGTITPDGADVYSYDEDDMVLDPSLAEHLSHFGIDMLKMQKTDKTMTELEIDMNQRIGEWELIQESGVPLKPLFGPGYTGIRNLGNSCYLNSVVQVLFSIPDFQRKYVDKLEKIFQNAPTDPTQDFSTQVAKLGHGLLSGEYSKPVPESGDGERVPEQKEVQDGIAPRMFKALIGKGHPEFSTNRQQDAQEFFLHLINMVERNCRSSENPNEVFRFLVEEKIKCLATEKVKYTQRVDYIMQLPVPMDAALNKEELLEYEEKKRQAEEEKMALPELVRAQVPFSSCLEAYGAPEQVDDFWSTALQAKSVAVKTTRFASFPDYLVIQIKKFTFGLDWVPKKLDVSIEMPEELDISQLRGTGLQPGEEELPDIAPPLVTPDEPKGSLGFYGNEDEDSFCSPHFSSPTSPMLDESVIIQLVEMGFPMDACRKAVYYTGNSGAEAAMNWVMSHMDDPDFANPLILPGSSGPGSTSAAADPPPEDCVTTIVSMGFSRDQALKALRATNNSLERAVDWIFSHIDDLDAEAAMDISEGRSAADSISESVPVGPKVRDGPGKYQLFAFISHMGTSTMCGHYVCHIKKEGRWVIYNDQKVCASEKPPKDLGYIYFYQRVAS

These are yes or no findings as the source states them, for the method shown. Binding seen in cells or lysates may run through a third protein. Some results given as binding are weak or reduced against the parent protein; the word gives no strength. Tags and fused reporters may be left off the sequences shown.

This test concerns the target T1, HA-SDE2UBL-PA activity-based probe (human) (UniProt Q6IQ49).
T1 sequence (chain, C-terminal propargylamide, Gly77 replaced with a propargyl electrophilic warhead): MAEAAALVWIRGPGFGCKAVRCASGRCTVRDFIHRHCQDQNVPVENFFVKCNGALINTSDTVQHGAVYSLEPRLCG
Kind of test: co-IP; HEK293 lysate (500 µg) with 1 µM HA-SDE2UBL-PA, 45 min at 37 °C, quenched with 0.4% SDS and 0.5% NP-40, anti-HA magnetic beads, immunoblot for USP5, USP13 and HA; covalent adducts; only the target purified. For orientation: A western blot detects proteins with antibodies after separation by electrophoresis.

For “endogenous USP5 of HEK293 cell lysate (from UniProt P45974 1-858) (enzyme)”, the binding entry was “binds”.
